In patent publication US7566808B2, “Management of ophthalmologic disorders, including macular degeneration” (President and Fellows of Harvard College, priority 2004, dated 2009):

Test system: A2E formation from all-trans-retinal and ethanolamine
Assay: In vitro A2E formation in the presence of aromatic amine
Method: 100 mg (355 μmoles) of all-trans-retinal was dissolved in 3 mL followed by the addition of 9.5 μL of glacial acetic acid 9.5 μL of ethanolamine (155 μmoles). This solution was aliquoted into 300 μL fractions. 3-aminoethylbenzoate (15.5 μmoles) was added to the samples at 0, 2, 3.75, 14, 16.25, 18.0833 19.917 23.75 and 48 hrs. […] The solutions were shaken at room temperature for 48 hrs. The solutions were then kept at −80° C. and 15 μL was diluted to 250 μL (methanol). The solutions (15 μL) were then analyzed on a reverse phase (C18-5 μm-4.6 mm×150 mm) column on a linear gradient 85%-96% methanol/water and UV detector at 430 nm to determine the amount of A2E formation. The percent A2E formation was compared to A2E formation at 48 h in the absence of aromatic amine.

CCOC(=O)c1cccc(N)c1 [3-aminoethylbenzoate, ethyl 3-aminobenzoate]
A2E Area under the Curve (HPLC, 430 nm) (amine added at 0 hrs): 422.5
A2E Area under the Curve (HPLC, 430 nm) (amine added at 2 hrs): 920
A2E Area under the Curve (HPLC, 430 nm) (amine added at 3.75 hrs): 818.5
A2E Area under the Curve (HPLC, 430 nm) (amine added at 14 hrs): 2094
A2E Area under the Curve (HPLC, 430 nm) (amine added at 16.25 hrs): 2043
A2E Area under the Curve (HPLC, 430 nm) (amine added at 18.0833 hrs): 2515
A2E Area under the Curve (HPLC, 430 nm) (amine added at 19.91667 hrs): 2934
A2E Area under the Curve (HPLC, 430 nm) (amine added at 23.75 hrs): 2382
A2E Area under the Curve (HPLC, 430 nm) (amine added at 48 hrs): 10613
